Data from patent US20070128187A1 (GENOME THERAPEUTICS, published 2007).
Results are given in words; binding and its absence hold for the method and conditions named. Binding can be weak; no strength is given.

By UniProt entry, the sequences of proteins in these tests, tags left out. Where a name states a change or a piece, a line headed by the entry shows the natural chain unless it says otherwise.
UniProt Q9H2X0: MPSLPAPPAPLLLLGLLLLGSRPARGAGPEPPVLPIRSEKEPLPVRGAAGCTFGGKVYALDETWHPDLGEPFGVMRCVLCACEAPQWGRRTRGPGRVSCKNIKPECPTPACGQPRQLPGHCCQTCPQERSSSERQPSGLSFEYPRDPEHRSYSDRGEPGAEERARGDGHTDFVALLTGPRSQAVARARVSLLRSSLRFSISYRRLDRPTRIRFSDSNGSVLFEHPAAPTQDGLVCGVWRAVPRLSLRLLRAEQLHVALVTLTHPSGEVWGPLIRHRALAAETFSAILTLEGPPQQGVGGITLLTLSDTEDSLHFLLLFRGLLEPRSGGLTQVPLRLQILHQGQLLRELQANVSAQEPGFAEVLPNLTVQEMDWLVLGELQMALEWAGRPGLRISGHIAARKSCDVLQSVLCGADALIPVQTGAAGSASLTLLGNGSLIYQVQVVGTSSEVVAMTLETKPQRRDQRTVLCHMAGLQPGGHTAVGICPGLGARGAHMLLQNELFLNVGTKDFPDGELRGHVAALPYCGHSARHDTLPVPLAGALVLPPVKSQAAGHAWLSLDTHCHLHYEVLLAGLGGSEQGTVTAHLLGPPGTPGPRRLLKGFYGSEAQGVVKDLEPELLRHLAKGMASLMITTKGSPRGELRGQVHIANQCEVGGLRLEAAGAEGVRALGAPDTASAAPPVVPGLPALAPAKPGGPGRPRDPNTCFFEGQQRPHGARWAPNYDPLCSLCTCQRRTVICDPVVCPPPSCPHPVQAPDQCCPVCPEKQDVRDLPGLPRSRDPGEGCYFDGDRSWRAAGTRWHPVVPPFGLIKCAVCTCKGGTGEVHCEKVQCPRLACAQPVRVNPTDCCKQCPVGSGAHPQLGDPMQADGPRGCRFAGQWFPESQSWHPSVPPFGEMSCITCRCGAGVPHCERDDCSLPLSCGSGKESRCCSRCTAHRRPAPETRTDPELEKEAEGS
UniProt Q04721: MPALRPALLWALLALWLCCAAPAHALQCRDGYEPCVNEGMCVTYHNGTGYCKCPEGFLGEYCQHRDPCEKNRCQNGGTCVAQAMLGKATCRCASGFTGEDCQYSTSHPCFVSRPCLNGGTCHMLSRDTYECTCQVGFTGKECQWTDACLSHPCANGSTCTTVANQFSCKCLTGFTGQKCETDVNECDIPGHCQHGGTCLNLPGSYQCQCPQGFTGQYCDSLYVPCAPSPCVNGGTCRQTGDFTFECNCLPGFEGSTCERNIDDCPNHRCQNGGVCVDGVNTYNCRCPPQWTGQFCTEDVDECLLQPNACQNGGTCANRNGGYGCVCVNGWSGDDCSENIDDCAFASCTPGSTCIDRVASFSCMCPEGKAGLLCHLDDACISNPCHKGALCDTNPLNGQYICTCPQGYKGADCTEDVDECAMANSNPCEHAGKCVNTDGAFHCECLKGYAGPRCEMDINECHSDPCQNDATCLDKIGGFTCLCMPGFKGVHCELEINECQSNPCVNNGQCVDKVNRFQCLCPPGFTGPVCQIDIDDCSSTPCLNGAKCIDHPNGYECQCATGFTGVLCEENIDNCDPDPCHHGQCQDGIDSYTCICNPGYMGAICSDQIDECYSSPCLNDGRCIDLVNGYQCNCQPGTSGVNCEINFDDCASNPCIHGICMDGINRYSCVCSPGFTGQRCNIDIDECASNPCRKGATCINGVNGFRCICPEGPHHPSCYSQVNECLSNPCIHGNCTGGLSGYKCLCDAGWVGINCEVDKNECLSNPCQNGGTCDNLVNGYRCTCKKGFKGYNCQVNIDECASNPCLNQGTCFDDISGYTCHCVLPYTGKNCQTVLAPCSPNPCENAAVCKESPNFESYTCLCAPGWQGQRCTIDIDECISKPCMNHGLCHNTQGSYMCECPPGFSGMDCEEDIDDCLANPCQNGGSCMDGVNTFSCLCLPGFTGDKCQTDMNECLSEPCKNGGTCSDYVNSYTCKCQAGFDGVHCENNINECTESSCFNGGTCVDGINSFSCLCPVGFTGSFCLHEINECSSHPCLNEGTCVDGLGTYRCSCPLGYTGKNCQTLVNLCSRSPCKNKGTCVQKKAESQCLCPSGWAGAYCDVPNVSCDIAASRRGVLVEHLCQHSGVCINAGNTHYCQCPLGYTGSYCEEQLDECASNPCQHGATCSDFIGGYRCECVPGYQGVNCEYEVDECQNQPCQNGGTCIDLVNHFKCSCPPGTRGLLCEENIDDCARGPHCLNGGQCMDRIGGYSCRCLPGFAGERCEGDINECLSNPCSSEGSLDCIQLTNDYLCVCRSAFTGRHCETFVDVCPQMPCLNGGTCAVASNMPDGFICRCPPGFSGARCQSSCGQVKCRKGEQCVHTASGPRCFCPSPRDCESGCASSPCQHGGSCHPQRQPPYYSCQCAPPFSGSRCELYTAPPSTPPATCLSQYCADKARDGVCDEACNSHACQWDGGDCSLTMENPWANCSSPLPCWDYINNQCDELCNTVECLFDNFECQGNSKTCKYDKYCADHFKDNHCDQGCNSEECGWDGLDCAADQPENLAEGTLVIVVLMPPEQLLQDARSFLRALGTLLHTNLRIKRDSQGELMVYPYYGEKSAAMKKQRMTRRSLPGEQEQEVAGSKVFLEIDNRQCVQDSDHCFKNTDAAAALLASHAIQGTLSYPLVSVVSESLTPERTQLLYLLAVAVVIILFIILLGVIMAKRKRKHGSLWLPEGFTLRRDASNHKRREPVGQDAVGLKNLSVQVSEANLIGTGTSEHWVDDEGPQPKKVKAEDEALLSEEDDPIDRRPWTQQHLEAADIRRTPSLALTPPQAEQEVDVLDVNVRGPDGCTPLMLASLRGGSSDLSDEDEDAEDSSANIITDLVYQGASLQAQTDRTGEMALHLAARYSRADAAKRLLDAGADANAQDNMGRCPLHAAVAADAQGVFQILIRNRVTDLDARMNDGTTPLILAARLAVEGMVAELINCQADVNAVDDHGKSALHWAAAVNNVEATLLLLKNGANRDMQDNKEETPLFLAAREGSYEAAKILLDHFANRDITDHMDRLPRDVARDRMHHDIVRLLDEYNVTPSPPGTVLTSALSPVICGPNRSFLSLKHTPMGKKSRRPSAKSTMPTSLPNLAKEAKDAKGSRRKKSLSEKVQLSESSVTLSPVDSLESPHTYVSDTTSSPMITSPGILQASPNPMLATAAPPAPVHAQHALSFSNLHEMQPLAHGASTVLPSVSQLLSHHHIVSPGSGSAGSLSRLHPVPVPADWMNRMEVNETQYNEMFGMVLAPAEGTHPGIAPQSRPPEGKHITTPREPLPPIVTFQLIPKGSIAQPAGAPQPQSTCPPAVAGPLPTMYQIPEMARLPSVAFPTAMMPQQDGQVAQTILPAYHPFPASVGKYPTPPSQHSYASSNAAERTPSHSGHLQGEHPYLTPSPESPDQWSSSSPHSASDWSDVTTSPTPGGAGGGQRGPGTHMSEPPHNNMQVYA

Molecular target: T1, Dkk-1 bait sequence (yeast two hybrid) (human) (UniProt O94907)
T1 sequence: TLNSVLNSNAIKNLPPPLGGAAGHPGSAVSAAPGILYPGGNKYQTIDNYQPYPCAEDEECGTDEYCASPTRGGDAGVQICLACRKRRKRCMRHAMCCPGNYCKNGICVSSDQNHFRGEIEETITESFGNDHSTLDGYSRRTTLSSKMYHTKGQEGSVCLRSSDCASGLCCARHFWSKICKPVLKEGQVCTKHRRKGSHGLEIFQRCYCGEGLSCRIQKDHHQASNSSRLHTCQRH
Assay: Y2H screen with the Dkk-1 bait (Hela and fetal brain libraries)

binding | Substance
binds | chordin (from UniProt Q9H2X0)
binds | Notch-2 (from UniProt Q04721) (receptor)
